Tests used:
[1] = tested on: MCF7 breast cancer cell line; test: Sulforhodamine-B; format: cell-based; details: Homo sapiens, MCF7, read-out: IC50 anticancer evaluation MCF
[2] = tested on: HOP62 lung cancer cell line; test: Sulforhodamine-B; format: cell-based; details: Homo sapiens, HOP-62, read-out: IC50 anticancer evaluation Hop62
[3] = tested on: Colo205 colon cancer cell line; test: Sulforhodamine-B; format: cell-based; details: Homo sapiens, COLO 205, read-out: IC50 anticancer evaluation Colo205
[4] = tested on: HT29 colon cancer cell line; test: Sulforhodamine-B; format: cell-based; details: Homo sapiens, HT-29, read-out: IC50 anticancer evaluation HT29
[5] = tested on: MIA-PA-CA-2 pancreatic cancer cell line; test: Sulforhodamine-B; format: cell-based; details: Homo sapiens, MIA PaCa-2, read-out: IC50 anticancer evaluation Miapaca-2
[6] = biological target: farnesyl protein transferase (FPT) (Homo sapiens, UniProt P49354+P49356); test: FPT inhibition assay; format: biochemical

Clc1ccc2c(c1)CCc1cccnc1C2=C1CCNCC1 [Desloratidine, Desloratadine]
IC50 [1]: 25 µM | IC50 [2]: 50 µM | IC50 [3]: 85 µM | IC50 [4]: 20 µM | IC50 [5]: 25 µM | IC50 [6]: 60 µM

Source: PMC3116320 (Indian Journal of Pharmaceutical Sciences, 2010)
